{
  "source": "patent US8252936B2",
  "about": "“Insecticidal compounds” (Syngenta Crop Protection LLC, priority 2006, dated 2012)",
  "assay_type_in_all_cases": "in vivo",
  "key": {"Spodoptera littoralis": {"tested_on": "Spodoptera littoralis", "assay": "Spodoptera littoralis (Egyptian cotton leafworm) leaf disc spray test", "conditions": "application rate 200 ppm, sprayed cotton leaf discs, L1 larvae, 3 days after treatment; mortality, feeding behaviour, growth regulation"}, "Heliothis virescens": {"tested_on": "Heliothis virescens", "assay": "Heliothis virescens (tobacco budworm) egg/artificial diet test", "conditions": "application rate 200 ppm (concentration in well 18 ppm), eggs 0-24 h old on artificial diet, 4 days; egg mortality, larval mortality, growth regulation"}, "Plutella xylostella": {"tested_on": "Plutella xylostella", "assay": "Plutella xylostella (diamond back moth) artificial diet test", "conditions": "application rate 200 ppm (concentration in well 18 ppm), L2 larvae, 6 days, larval mortality, growth regulation"}, "Diabrotica balteata": {"tested_on": "Diabrotica balteata", "assay": "Diabrotica balteata (corn root worm) artificial diet test", "conditions": "application rate 200 ppm (concentration in well 18 ppm), L2 larvae, 5 days, larval mortality, growth regulation"}},
  "note": "Some of these results come from one statement about several compounds together. For at least one compound, name, drawing or mass did not settle the structure.",
  "data": [
    {"smiles": "Cc1cc(C(F)(C(F)(F)F)C(F)(F)F)cc(C)c1NC(=O)c1csc(NC(=O)c2cccnc2Cl)c1", "note": "[Compound A1, 2-chloro-N-{4-[2,6-dimethyl-4-(1,2,2,2-tetrafluoro-1-trifluoro-methyl-ethyl)-phenylcarbamoyl]-thiophen-2-yl}-nicotinamide]", "values": [
      {"measurement": "control of Spodoptera littoralis", "setting": "Spodoptera littoralis", "value": "at least 80%"},
      {"measurement": "control of Heliothis virescens", "setting": "Heliothis virescens", "value": "at least 80%"},
      {"measurement": "control of Plutella xylostella", "setting": "Plutella xylostella", "value": "at least 80%"},
      {"measurement": "control of Diabrotica balteata", "setting": "Diabrotica balteata", "value": "at least 80%"}
    ]},
    {"smiles": "Cc1cc(C(F)(C(F)(F)F)C(F)(F)F)cc(C)c1NC(=O)c1csc(NC(=O)c2ccc(C#N)cc2)c1", "note": "[Compound A3]", "values": [
      {"measurement": "control of Spodoptera littoralis", "setting": "Spodoptera littoralis", "value": "at least 80%"},
      {"measurement": "control of Heliothis virescens", "setting": "Heliothis virescens", "value": "at least 80%"},
      {"measurement": "control of Plutella xylostella", "setting": "Plutella xylostella", "value": "at least 80%"},
      {"measurement": "control of Diabrotica balteata", "setting": "Diabrotica balteata", "value": "at least 80%"}
    ]},
    {"smiles": "Cc1cccnc1C(=O)Nc1cc(C(=O)Nc2c(C)cc(C(F)(C(F)(F)F)C(F)(F)F)cc2C)cs1", "note": "[Compound A23]", "values": [
      {"measurement": "control of Spodoptera littoralis", "setting": "Spodoptera littoralis", "value": "at least 80%"},
      {"measurement": "control of Heliothis virescens", "setting": "Heliothis virescens", "value": "at least 80%"},
      {"measurement": "control of Plutella xylostella", "setting": "Plutella xylostella", "value": "at least 80%"}
    ]},
    {"smiles": "Cc1cc(C(F)(C(F)(F)F)C(F)(F)F)cc(C)c1NC(=O)c1ccc(NC(=O)c2ccc(C#N)cc2)s1", "note": "[Compound B3]", "values": [
      {"measurement": "control of Plutella xylostella", "setting": "Plutella xylostella", "value": "at least 80%"}
    ]},
    {"smiles": "Cc1cccnc1C(=O)Nc1ccc(C(=O)Nc2c(C)cc(C(F)(C(F)(F)F)C(F)(F)F)cc2C)s1", "note": "[Compound B10]", "values": [
      {"measurement": "control of Plutella xylostella", "setting": "Plutella xylostella", "value": "at least 80%"}
    ]},
    {"smiles": "Cc1cc(C(F)(C(F)(F)F)C(F)(F)F)cc(C)c1NC(=O)c1cc(NC(=O)c2ccc(C#N)cc2)cs1", "note": "[Compound C3]", "values": [
      {"measurement": "control of Heliothis virescens", "setting": "Heliothis virescens", "value": "at least 80%"},
      {"measurement": "control of Diabrotica balteata", "setting": "Diabrotica balteata", "value": "at least 80%"}
    ]},
    {"smiles": "Cc1cccnc1C(=O)Nc1csc(C(=O)Nc2c(C)cc(C(F)(C(F)(F)F)C(F)(F)F)cc2C)c1", "note": "[Compound C22]", "values": [
      {"measurement": "control of Spodoptera littoralis", "setting": "Spodoptera littoralis", "value": "at least 80%"},
      {"measurement": "control of Heliothis virescens", "setting": "Heliothis virescens", "value": "at least 80%"}
    ]},
    {"smiles": "Cc1cc(C(F)(C(F)(F)F)C(F)(F)F)cc(C)c1NC(=O)c1cc(NC(=O)c2ccc(C#N)cc2)c(Cl)s1", "note": "[Compound E4]", "values": [
      {"measurement": "control of Spodoptera littoralis", "setting": "Spodoptera littoralis", "value": "at least 80%"},
      {"measurement": "control of Heliothis virescens", "setting": "Heliothis virescens", "value": "at least 80%"},
      {"measurement": "control of Plutella xylostella", "setting": "Plutella xylostella", "value": "at least 80%"},
      {"measurement": "control of Diabrotica balteata", "setting": "Diabrotica balteata", "value": "at least 80%"}
    ]},
    {"smiles": "Cc1cc(C(F)(C(F)(F)F)C(F)(F)F)cc(C)c1NC(=O)c1cc(NC(=O)c2ccc(C#N)cc2)c(Br)s1", "note": "[Compound F4]", "values": [
      {"measurement": "control of Spodoptera littoralis", "setting": "Spodoptera littoralis", "value": "at least 80%"},
      {"measurement": "control of Heliothis virescens", "setting": "Heliothis virescens", "value": "at least 80%"},
      {"measurement": "control of Plutella xylostella", "setting": "Plutella xylostella", "value": "at least 80%"},
      {"measurement": "control of Diabrotica balteata", "setting": "Diabrotica balteata", "value": "at least 80%"}
    ]},
    {"smiles": "Cc1cccnc1C(=O)Nc1cc(C(=O)Nc2c(C)cc(C(F)(C(F)(F)F)C(F)(F)F)cc2C)sc1C", "note": "[Compound G23]", "values": [
      {"measurement": "control of Heliothis virescens", "setting": "Heliothis virescens", "value": "at least 80%"}
    ]}
  ]
}
